Values of other authors as cited in patent publication US12545644B2, “6-azido-1.3 benzo[de]isoquinoline compounds photo-crosslinked by visible light and uses thereof” (SEOUL NATIONAL UNIVERSITY R&DB FOUNDATION, priority 2021, dated 2026).
For at least one compound, name, drawing or mass did not settle the structure.

Settings: cited from earlier work

Q: Which “stability in an aqueous solution” value does the source give for `CCN1C(=O)c2cccc3c(N=[N+]=[N-])ccc(c23)C1=O` [AzNP, 4-azido-N-ethy-1,8-naphthalimide] here?
A: very stable
